Among the data in publication PMC11900227 are binding values, retold here.

These are yes or no findings as the source states them, for the method shown. Binding seen in cells or lysates may run through a third protein. Binding can be weak; no strength is given. Tags and fused reporters may be left off the sequences shown.

For test [1], the target named is IAA8-YFP^C (Arabidopsis thaliana). Nature of the test: split reporter; BiFC in Arabidopsis mesophyll protoplasts; MPK3/6-YFP^N with TIR1- or IAAs-YFP^C, 25 °C for 12 h in the dark, confocal microscopy.
Test [2] deals with IAA8-GFP (Arabidopsis thaliana). Nature of the test: co-IP; Arabidopsis mesophyll protoplasts co-transfected; anti-GFP antibody immunoprecipitates IAA8-GFP, anti-Myc antibody detects MPK3-Myc or MPK6-Myc.

B1: MPK3-YFP^N (enzyme, UniProt Q39023 1-370)
chain: MNTGGGQYTDFPAVETHGGQFISYDIFGSLFEITSKYRPPIIPIGRGAYGIVCSVLDTETNELVAMKKIANAFDNHMDAKRTLREIKLLRHLDHENIIAIRDVVPPPLRRQFSDVYISTELMDTDLHQIIRSNQSLSEEHCQYFLYQLLRGLKYIHSANIIHRDLKPSNLLLNANCDLKICDFGLARPTSENDFMTEYVVTRWYRAPELLLNSSDYTAAIDVWSVGCIFMELMNRKPLFPGKDHVHQMRLLTELLGTPTESDLGFTHNEDAKRYIRQLPNFPRQPLAKLFSHVNPMAIDLVDRMLTFDPNRRITVEQALNHQYLAKLHDPNDEPICQKPFSFEFEQQPLDEEQIKEMIYQEAIALNPTYG
As to B1, in test [1], the binding result is recorded as “binds”.

B2: MPK3-Myc (enzyme, UniProt Q39023 1-370)
chain: B1 chain
Consider B2, for which the binding entry in test [2] is listed as “binds”.
